No constants are given. Whether binding was seen depends on the method and setting. Binding seen in cells or lysates may run through a third protein. These calls come from enrichment with a bait or labelling near it, and not all partners need be listed.
Molecular target: Flag-tagged Mi-2 (Drosophila melanogaster) (UniProt O97159)
Assay: affinity purification with mass spectrometry; Flag-Mi-2 expressed in S2 cells, anti-Flag immunoprecipitation, washes with 500 mM NaCl, 0.5% Triton X-100, elution with Flag peptide, trypsin digestion, LC-MS/MS; Flag-GFP as control

Protein sequences, listed by entry. Tags and fused reporters are not part of them.
UniProt O97159: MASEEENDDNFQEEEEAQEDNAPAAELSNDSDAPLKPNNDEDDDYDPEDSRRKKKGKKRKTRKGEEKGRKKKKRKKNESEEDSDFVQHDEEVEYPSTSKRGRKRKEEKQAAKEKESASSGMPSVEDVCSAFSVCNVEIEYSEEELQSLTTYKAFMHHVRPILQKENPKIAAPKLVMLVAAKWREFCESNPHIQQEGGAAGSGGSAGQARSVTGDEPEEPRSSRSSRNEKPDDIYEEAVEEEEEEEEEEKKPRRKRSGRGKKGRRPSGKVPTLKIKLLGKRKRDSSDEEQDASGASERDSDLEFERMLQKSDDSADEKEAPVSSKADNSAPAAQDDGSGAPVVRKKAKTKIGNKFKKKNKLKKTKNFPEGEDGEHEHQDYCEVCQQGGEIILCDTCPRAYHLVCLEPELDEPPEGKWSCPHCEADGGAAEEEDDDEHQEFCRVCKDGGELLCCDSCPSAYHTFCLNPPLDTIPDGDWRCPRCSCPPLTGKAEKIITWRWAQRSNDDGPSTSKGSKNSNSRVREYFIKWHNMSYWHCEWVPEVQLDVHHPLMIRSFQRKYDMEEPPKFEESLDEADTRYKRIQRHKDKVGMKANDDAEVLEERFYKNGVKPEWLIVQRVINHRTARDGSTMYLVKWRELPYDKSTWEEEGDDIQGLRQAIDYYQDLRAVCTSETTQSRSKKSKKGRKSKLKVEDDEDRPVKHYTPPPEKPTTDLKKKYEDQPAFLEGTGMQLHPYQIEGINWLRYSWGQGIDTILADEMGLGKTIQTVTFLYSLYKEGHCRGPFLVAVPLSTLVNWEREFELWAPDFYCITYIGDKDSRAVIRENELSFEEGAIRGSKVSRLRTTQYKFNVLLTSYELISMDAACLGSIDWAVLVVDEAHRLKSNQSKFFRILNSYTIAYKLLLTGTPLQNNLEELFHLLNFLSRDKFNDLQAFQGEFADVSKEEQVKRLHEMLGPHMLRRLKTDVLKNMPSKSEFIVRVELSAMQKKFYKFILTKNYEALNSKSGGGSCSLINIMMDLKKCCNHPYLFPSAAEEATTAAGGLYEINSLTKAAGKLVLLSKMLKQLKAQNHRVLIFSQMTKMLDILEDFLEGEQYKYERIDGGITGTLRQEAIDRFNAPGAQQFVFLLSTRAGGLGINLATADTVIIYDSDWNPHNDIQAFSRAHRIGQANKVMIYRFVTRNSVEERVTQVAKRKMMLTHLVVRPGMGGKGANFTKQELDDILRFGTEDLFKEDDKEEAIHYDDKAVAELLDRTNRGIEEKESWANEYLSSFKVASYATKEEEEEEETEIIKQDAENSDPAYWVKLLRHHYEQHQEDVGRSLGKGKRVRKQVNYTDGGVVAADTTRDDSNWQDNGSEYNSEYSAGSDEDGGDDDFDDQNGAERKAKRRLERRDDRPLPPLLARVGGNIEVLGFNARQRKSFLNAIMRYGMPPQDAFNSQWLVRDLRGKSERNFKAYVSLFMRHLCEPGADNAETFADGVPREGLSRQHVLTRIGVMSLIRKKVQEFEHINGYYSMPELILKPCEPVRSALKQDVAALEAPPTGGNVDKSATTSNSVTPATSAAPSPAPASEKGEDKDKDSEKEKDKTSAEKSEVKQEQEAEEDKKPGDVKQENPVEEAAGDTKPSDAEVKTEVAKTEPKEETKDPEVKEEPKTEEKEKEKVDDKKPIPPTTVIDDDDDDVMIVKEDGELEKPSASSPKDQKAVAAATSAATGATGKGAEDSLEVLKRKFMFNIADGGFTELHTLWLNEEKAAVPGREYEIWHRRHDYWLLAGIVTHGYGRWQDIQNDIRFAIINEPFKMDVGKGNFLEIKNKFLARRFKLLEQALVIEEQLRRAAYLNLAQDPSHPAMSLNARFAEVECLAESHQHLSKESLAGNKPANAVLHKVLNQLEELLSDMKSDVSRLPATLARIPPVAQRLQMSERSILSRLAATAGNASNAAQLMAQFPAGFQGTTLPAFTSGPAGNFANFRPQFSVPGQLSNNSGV
UniProt Q95V55: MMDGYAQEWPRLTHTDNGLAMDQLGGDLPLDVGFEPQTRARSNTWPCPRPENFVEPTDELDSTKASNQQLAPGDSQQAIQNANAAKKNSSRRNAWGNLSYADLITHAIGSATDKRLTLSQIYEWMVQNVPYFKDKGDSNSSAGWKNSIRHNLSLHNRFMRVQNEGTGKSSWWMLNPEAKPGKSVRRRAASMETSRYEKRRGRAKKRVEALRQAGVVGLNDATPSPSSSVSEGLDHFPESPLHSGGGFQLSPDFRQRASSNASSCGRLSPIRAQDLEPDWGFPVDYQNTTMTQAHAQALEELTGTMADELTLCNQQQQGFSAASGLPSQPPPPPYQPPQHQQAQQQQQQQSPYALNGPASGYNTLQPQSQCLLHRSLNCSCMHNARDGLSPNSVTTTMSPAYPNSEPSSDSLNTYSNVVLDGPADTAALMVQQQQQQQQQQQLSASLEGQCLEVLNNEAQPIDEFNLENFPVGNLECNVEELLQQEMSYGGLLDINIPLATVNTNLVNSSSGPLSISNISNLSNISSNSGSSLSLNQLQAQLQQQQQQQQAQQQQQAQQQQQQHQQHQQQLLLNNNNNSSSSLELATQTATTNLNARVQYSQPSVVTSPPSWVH

Forkhead box O (Foxo), found in the Mi-2 interactome of S2 cells (from UniProt Q95V55 1-613)
binding: binds
